Assay results published in PMC11046838.
These are yes or no findings as the source states them, for the method shown. Binding seen in cells or lysates may run through a third protein. Some entries that bind do so weakly or less than the wild type.

Molecular target: γH2AX (mouse (endogenous in DRGs of C57BL/6 mice)) (UniProt P27661)
Test: co-IP; Co-IP Kit (Roche); protein extracts (RIPA buffer) of 18 pooled L3/4/5 DRGs from 6 mice per group (sham; SNI with mitochondrial injection); pre-cleared with protein G-agarose, anti-γH2AX antibody 1 h, protein G-agarose overnight at 4 °C; CTCF detected by Western blot

binding: binds
B1: CTCF (protein, UniProt Q61164 1-736)
chain: MEGEAVEAIVEESETFIKGKERKTYQRRREGGQEEDACHLPQNQTDGGEVVQDVNSSVQMVMMEQLDPTLLQMKTEVMEGTVAPEAEAAVDDTQIITLQVVNMEEQPINIGELQLVQVPVPVTVPVATTSVEELQGAYENEVSKEGLAESEPMICHTLPLPEGFQVVKVGANGEVETLEQGELPPQEDSSWQKDPDYQPPAKKTKKTKKSKLRYTEEGKDVDVSVYDFEEEQQEGLLSEVNAEKVVGNMKPPKPTKIKKKGVKKTFQCELCSYTCPRRSNLDRHMKSHTDERPHKCHLCGRAFRTVTLLRNHLNTHTGTRPHKCPDCDMAFVTSGELVRHRRYKHTHEKPFKCSMCDYASVEVSKLKRHIRSHTGERPFQCSLCSYASRDTYKLKRHMRTHSGEKPYECYICHARFTQSGTMKMHILQKHTENVAKFHCPHCDTVIARKSDLGVHLRKQHSYIEQGKKCRYCDAVFHERYALIQHQKSHKNEKRFKCDQCDYACRQERHMIMHKRTHTGEKPYACSHCDKTFRQKQLLDMHFKRYHDPNFVPAAFVCSKCGKTFTRRNTMARHADNCAGPDGVEGENGGETKKSKRGRKRKMRSKKEDSSDSEENAEPDLDDNEEEEEPAVEIEPEPEPQPQPPPPPQPVAPAPPPAKKRRGRPPGRTNQPKQNQPTAIIQVEDQNTGAIENIIVEVKKEPDAEPAEGEEEEAQAATTDAPNGDLTPEMILSMMDR
